Reference: PubChem BioAssay AID493014 (National Center for Advancing Translational Sciences (NCATS), 2011)
Some of the results follow. Further columns of the screen follow, without active or inactive calls. The list favours compounds with an active or inconclusive main result. Words in brackets tell the shape of the fitted curve; partial curves, single points and poor fits give uncertain potencies.

Experiment: qHTS Assay to Find Inhibitors of Chronic Active B-Cell Receptor Signaling
Settings: ABC-DLBCL IkBa-CBG/CBR reporter, luminescence ratio (green luciferase fused to IkBa over red control in TMD8 lymphoma cells), 4 h
How it was run: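 TMD8 human ABC-DLBCL cells with doxycycline-inducible IκBα–green luciferase fusion and unfused red luciferase, in 0.5% FBS medium; compounds up to 46 uM, 4 h at 37C. Green/red luminescence ratio, filter-overlap corrected, fitted to concentration-response curves.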

[1] = measured here: IkBa-CBG green luminescence
[2] = measured here: CBR red luminescence, cell number

Row | SMILES | AC50 [1] | AC50 [2]
1 | Cc1ccccc1OCCn1cnc2c(N)ncnc21 | 23.1 µM [falling, partial curve, poor fit] | 
2 | O=C(Nc1nc2ccccc2s1)c1ccccc1[N+](=O)[O-] |  | 7.08 µM [falling, partial curve]
3 | Cc1cccc(NC(=O)C(CC(C)C)NC(=O)C2CCC(C)CC2)n1 (stereo not given) |  | 11.2 µM [rising, partial curve, poor fit]
4 | CN(C)c1ccc(-c2nnc(-c3cccs3)o2)cc1 |  | 2.24 µM [falling, partial curve, poor fit]
5 | CCN(c1ccccc1)S(=O)(=O)c1cc(C(=O)Nc2cccc(Cl)c2)ccc1F | 9.2 µM [rising, partial curve, poor fit] | 23.1 µM [falling, single point]
6 | O=C(NC(=S)Nc1ccc(S(=O)(=O)N2CCCC2)cc1)c1cccs1 |  | 16.4 µM [falling, single point]
7 | CC(C)Oc1ccc(Br)cc1C(=O)N/N=C/c1c[nH]c2ccccc12 |  | 10 µM [falling, partial curve, poor fit]
8 | C/C(=N/NC(=O)c1cc(O)c(O)c(O)c1)c1ccc([N+](=O)[O-])cc1 |  | 31.6 µM [falling, single point]
9 | Nc1c(C(=O)Nc2ccc3c(c2)OCCO3)nnn1Cc1ccccc1 |  | 32.6 µM [falling, single point]
10 | COc1ccccc1NC(=O)c1sc(NC(=O)c2ccco2)c(C#N)c1C |  | 18.4 µM [falling, partial curve, poor fit]
11 | CCn1c(=NC(=O)CSCC(=O)Nc2nccs2)sc2ccccc21 |  | 29.1 µM [rising, single point]
12 | Cc1nc2cc(NC(=O)NCc3ccc4c(c3)OCO4)ccc2o1 |  | 18.4 µM [falling, partial curve, poor fit]
13 | CCOC(=O)Cn1c(=NC(=O)c2cc(-c3cccs3)nc3ccccc23)sc2cc(S(N)(=O)=O)ccc21 |  | 11.6 µM [falling, partial curve, poor fit]
14 | CCOC(=O)C(NC(=O)CC)(Nc1ccc(S(=O)(=O)Nc2ncccn2)cc1)C(F)(F)F (stereo not given) |  | 0.631 µM [falling, partial curve, poor fit]
15 | O=C(c1cc(-c2ccc(O)cc2)on1)N1CCOCC1 |  | 10 µM [falling, partial curve]
16 | Cc1ccc(C(=O)Nc2cccc(C(=O)NCc3ccco3)c2)cc1 |  | 4.61 µM [falling, partial curve, poor fit]
17 | COC(=O)c1ccc(CNC(=O)Cn2cnc3c(NCc4ccccc4)ncnc32)cc1 | 25.9 µM [falling, partial curve] | 
18 | CCOc1ccc(S(=O)(=O)Nc2ccc(C(=O)NCc3ccncc3)cc2)cc1 |  | 1.46 µM [rising, partial curve]
19 | COc1ccc(C2=CC(c3ccco3)n3ncnc3N2)cc1 (stereo not given) |  | 35.5 µM [falling, single point]
20 | Cc1nc(NC(=O)c2ccccc2)sc1-c1csc(N)n1 |  | 12.6 µM [falling, partial curve, poor fit]

Copied from above for reference:
Row | SMILES | AC50 [1] | AC50 [2]
18 | CCOc1ccc(S(=O)(=O)Nc2ccc(C(=O)NCc3ccncc3)cc2)cc1 |  | 1.46 µM [rising, partial curve]
19 | COc1ccc(C2=CC(c3ccco3)n3ncnc3N2)cc1 (stereo not given) |  | 35.5 µM [falling, single point]

Further structures.

Row | SMILES | AC50 [1] | AC50 [2]
21 | O=C1CCC(C(=O)O)N1 (stereo not given) |  | 4.47 µM [rising, partial curve, poor fit]
22 | COC(=O)CCCC(=O)N1CCC(n2nccc2NC(=O)CCOc2ccccc2)CC1 |  | 14.1 µM [falling, partial curve, poor fit]
23 | COc1ccc(NC(=S)NCCSc2ccc(Cl)cc2)c(OC)c1 |  | 16.4 µM [falling, partial curve]
24 | COc1ccc(-c2coc3cc(OC)cc(O)c3c2=O)cc1 |  | 1.12 µM [rising, full curve]
25 | Cc1ccc2c(COC(=O)c3ccccc3Cl)cc(=O)oc2c1 |  | 0.794 µM [rising, full curve, poor fit]
26 | O=C(COC(=O)CNC(=O)c1ccco1)Nc1ccc(Cl)cn1 |  | 0.651 µM [falling, full curve, poor fit]
27 | CC(C)[C@@H]1NC(=O)c2cc([N+](=O)[O-])cc(I)c2NCCC[C@@H](C(N)=O)NC(=O)[C@H](CO)NC1=O |  | 0.461 µM [rising, full curve, poor fit]
28 | O=C(Cn1nc([N+](=O)[O-])nc1Br)NC(c1ccccc1)c1ccccc1 |  | 18.4 µM [falling, partial curve, poor fit]
29 | CCC12CCCN3CCc4c(n(c5ccccc45)C(O)(C(=O)OC)C1)C32 (stereo not given) |  | 14.1 µM [falling, single point]
30 | C=CCN(c1ccccc1)S(=O)(=O)c1cccc(C(=O)O)c1 |  | 3.66 µM [rising, partial curve, poor fit]
31 | O=C(Nc1nnc(/C=C/c2ccccc2)s1)c1ccco1 |  | 0.447 µM [rising, full curve, poor fit]
32 | COc1ccccc1-n1cc(CN2CCN(C3CCCCC3)C(CCO)C2)cn1 (stereo not given) |  | 4.47 µM [rising, partial curve, poor fit]
33 | COc1ccc(S(=O)(=O)N2CCOCC2)cc1NC(=O)COc1ccc(C)cc1 |  | 0.82 µM [rising, full curve, poor fit]
34 | O=C(NCCNc1ccc2ccccc2c1)c1cccn2c(=O)c3sccc3nc12 |  | 3.16 µM [falling, full curve, poor fit]
35 | Cc1ccc(NC(=O)Cn2cccc2)c(C)c1 |  | 2.31 µM [rising, full curve, poor fit]
36 | COc1cc(/C=N/NC(=O)c2ccc3nc[nH]c3c2)ccc1O |  | 5.62 µM [falling, full curve, poor fit]
37 | Cc1cccc(NC(=O)c2cccnc2Cl)n1 |  | 10 µM [falling, partial curve]
38 | CCN(C[C@H]1N[C@@](CC)(C(=O)OC)[C@H]2C(=O)N(Cc3ccccc3)C(=O)[C@@H]12)S(=O)(=O)c1ccc(OC(F)(F)F)cc1 |  | 9.2 µM [falling, partial curve, poor fit]
39 | Cc1nn(-c2cc(N3CCOCC3)ccc2[N+](=O)[O-])c(=O)c2ccccc12 |  | 29.1 µM [rising, single point]
